## Screening data, single-dose tests

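Whole-parasite assay of Trypanosoma brucei over 72 hours; the read-out is not stated. Tested at 30 µM. Higher reads as stronger inhibition (inferred: compounds with an IC50 in retests scored well above the rest). Values scatter widely below zero; nearly all retest evidence comes from the higher of the two concentrations used. About 64,000 compounds were tested under these conditions; 1.5% (about 940) showed 50% or more at least once.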

Results are given as percent effect.
The controls that fix the scale are not given in the record; negative values are as filed.
The compounds are a random part of those screened.

structure | Percent Effect
CC(C)c1nnc2n1CCN(CC(=O)N1CCc3ccccc3C1)C2 | 2.739%
CN(Cc1cc2n(n1)CCN(C(=O)[C@H]1CCCO1)C2)Cc1nccs1 | -11%
O=C(O)C(F)(F)F.[H][C@@]12OCCN(S(=O)(=O)C3CC3)[C@@]1([H])CC[C@H]2Oc1cccnc1 | -13.58%
COc1nc(C)c(C(=O)N(C)Cc2nc(-c3ccccn3)no2)s1 | 5.07%
O=C(O)C(F)(F)F.O=C(O)C(F)(F)F.[H][C@@]12COC[C@]1(COCc1ccncc1)CN(Cc1cccc(F)c1)C2 | -8.118%
O=C(O)C(F)(F)F.[H][C@@]12CCCO[C@]1([H])[C@H](OCC)CN2S(=O)(=O)c1cn(C)cn1 | -5.711%
COCCN1C(=O)CC[C@]12CC[C@@H](NCc1nccs1)CC2.O=C(O)C(F)(F)F | -16.53%
CC(C)CCNC(=O)Cc1cnc(-n2cccc2)s1 | -40.28%
Cc1ccc(CNC(C)c2ccc(N3CCN(C)CC3)c(F)c2)o1.Cl (stereo not drawn) | -7.503%
N#Cc1ccc(NC2CCN(c3ncccn3)CC2)cc1Cl | 1.449%
CCN1CCCN(c2ccc(-n3ccc(C)n3)nn2)CC1 | -16.63%
CCc1noc(C(C)N2CCN(CC(C)C)CC2)n1 (stereo not drawn) | -5.248%
O=C(O)C(F)(F)F.O=C(c1ccco1)N1CCCC2(CN(Cc3ccsc3)CCO2)C1 (stereo not drawn) | -1.89%
CC(=O)N1CC(c2ncn(C(C)C)n2)c2cc(C(=O)NC3CC3)ccc21 (stereo not drawn) | -61.2%
CCc1ccc(CNC(=O)CCNc2ncccn2)s1 | -3.188%
COCCCn1ccc(NS(=O)(=O)c2cc(C)c(F)cc2F)n1 | -48.93%
CN(C)c1ccc(C(=O)N(Cc2ccncc2)CC2CCCO2)nn1 (stereo not drawn) | -38.69%
Cc1ccc(C(=O)N2CCSCC2)cc1NC(=O)NCC1CCC1 | -8.006%
CCN(CC(=O)NC1(C)CCS(=O)(=O)C1)Cc1ccc(OC)c(F)c1 (stereo not drawn) | 4.248%
Nc1nnc(CCNC(=O)c2cccc(C3CCCNC3)c2)s1 (stereo not drawn) | -6.992%
Cc1ncc(CN(C)c2nc3c(cnn3C(C)(C)C)c(=O)[nH]2)s1 | -54.15%
CC(=O)N1CCC2(CC1)CN(C(=O)c1cccnc1)c1ccc(F)cc12.O=C(O)C(F)(F)F | -2.291%
NC(=O)c1ccc(OCCCN2C[C@H](C3CC3)[C@@H](N)C2)cc1 | 5.646%
Cc1ccc(CN2Cc3c(C(=O)N4CCCC4)nn(C)c3C2)s1.O=C(O)C(F)(F)F | -54.81%
CC(=O)NCC(=O)N1CCCC1c1ccc(CN2CCOCC2)cn1 (stereo not drawn) | -4.824%
Cc1nc(C)c(CC(=O)N2CCC(c3ccn4nccc4n3)CC2)s1 | 18.72%
Cc1cc(NC2CCN(c3ccccc3)C2)n2ncnc2n1 (stereo not drawn) | -9.821%
CCN(Cc1nc(COC)no1)Cc1cccnc1NC(=O)C(C)(C)C | -14.2%
Cc1c(C)n(CC(O)CN2CCC(C)CC2)c2c(Cl)cccc12 (stereo not drawn) | 7.34%
Nc1nnc(C2CC(=O)N(c3ccccc3)C2)s1 (stereo not drawn) | -5.389%
O=C(Nc1ccccc1OCCc1ccccn1)N1CC[C@@H](O)C1 | -38.03%
COc1ccc(C)cc1CC(=O)Nc1cc(C)n[nH]1 | -60.03%
Cc1cc(C)n(-c2ccc(C(=O)NCC(CO)Cc3ccco3)cc2)n1 (stereo not drawn) | -12.02%
Cc1ccc(N2CCCC(NCc3cccs3)C2)nn1 (stereo not drawn) | -23.46%
Cc1cc(C)n(-c2ccnc(N3CCC(C(=O)N4CCCC4)CC3)n2)n1 | 7.619%
Cc1nc(CN(C)C(=O)CN(C)C)nc2c1CCC(=O)N2CCC(C)C | -1.961%
Cc1cccc(CN2CCN(Cc3ccccc3)CC(O)C2)n1 (stereo not drawn) | -9.695%
Cc1ccc(CN(C)C)cc1NC(=O)C1CC=CC1 | -56.31%
[H][C@]12CCCC(N(C)Cc3cccs3)[C@@]1([H])CN(C(=O)c1cccn1C)C2 (stereo partly drawn) | -76.89%
CCc1nc(CCNC(=O)NC2CCSCC2)cs1 | -65.46%
N[C@@H]1CCN(Cc2ccc(-c3nc(-c4cccnc4)cc(=O)[nH]3)cc2)C1 | 16.16%
O=C(O)C(F)(F)F.[H][C@@]12CCCO[C@]1([H])[C@H](N(C)C)CN2C(=O)Cc1cccs1 | -91.09%
Cc1c(CC(=O)N2CCN(CC(F)(F)F)CC2)nnn1-c1ccccc1 | -23.17%
O=C(O)C(F)(F)F.O=C(c1ncccn1)N1CCC2(CC1)COC(COc1ccccn1)C2 (stereo not drawn) | 49.38%
CCCc1nnsc1C(=O)NCC1CCN(C(=O)c2ccncc2)CC1 | -17.26%
COCCN1CCc2ncc(CN(C)C)n2CC1 | -50.4%

For reference, 6 entries once more:

structure	Percent Effect
CC(C)CCNC(=O)Cc1cnc(-n2cccc2)s1	-40.28%
COc1ccc(C)cc1CC(=O)Nc1cc(C)n[nH]1	-60.03%
O=C(O)C(F)(F)F.O=C(c1ncccn1)N1CCC2(CC1)COC(COc1ccccn1)C2 (stereo not drawn)	49.38%
CN(Cc1cc2n(n1)CCN(C(=O)[C@H]1CCCO1)C2)Cc1nccs1	-11%
O=C(Nc1ccccc1OCCc1ccccn1)N1CC[C@@H](O)C1	-38.03%
Cc1ccc(CNC(C)c2ccc(N3CCN(C)CC3)c(F)c2)o1.Cl (stereo not drawn)	-7.503%

Source: ChEMBL document CHEMBL3988442, “University of Dundee, Small-Polar-MMV Screening Library” (2021).